Test results published in the supplement of paper PMC10849652.
Some of the results follow.

Sequences of proteins named here, by UniProt entry; tags and fusion partners are left off. A change or cut given only in a name is not applied to a line headed by its entry.
UniProt Q9P2I0: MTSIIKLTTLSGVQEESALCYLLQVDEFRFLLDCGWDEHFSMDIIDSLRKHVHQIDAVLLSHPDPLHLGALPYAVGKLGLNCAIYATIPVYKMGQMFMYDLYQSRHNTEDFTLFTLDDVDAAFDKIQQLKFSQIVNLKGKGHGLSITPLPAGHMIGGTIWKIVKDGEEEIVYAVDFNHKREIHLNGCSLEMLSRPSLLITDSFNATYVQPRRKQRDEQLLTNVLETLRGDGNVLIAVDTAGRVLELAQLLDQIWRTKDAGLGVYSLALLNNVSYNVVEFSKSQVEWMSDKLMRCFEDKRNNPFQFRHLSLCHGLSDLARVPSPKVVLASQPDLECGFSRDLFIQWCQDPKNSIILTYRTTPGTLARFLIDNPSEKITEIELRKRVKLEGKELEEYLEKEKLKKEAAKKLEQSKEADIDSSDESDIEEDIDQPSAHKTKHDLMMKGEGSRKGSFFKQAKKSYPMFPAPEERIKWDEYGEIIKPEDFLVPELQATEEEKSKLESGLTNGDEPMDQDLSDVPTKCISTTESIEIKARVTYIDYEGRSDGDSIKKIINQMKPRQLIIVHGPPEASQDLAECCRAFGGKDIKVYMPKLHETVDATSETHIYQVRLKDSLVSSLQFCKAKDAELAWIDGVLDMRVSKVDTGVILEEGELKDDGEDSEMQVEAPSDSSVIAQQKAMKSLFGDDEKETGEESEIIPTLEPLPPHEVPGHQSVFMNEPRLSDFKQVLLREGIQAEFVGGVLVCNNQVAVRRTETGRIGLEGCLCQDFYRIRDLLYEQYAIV
UniProt Q99829: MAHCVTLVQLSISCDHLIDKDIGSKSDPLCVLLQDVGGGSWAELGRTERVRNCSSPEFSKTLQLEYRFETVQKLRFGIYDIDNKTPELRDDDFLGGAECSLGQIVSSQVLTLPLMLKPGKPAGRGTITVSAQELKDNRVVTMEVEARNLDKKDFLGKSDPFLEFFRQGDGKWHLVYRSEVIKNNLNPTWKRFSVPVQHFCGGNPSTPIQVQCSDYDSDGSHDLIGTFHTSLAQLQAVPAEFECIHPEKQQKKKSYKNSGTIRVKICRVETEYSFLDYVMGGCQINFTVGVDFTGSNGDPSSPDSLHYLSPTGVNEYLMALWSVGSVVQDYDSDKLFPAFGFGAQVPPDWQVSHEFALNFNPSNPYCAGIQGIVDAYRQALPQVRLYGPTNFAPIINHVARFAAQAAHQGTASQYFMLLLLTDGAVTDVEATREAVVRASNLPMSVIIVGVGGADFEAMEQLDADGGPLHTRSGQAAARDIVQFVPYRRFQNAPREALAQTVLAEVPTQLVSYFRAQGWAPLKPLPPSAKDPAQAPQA
UniProt P10606, whole entry, looked up: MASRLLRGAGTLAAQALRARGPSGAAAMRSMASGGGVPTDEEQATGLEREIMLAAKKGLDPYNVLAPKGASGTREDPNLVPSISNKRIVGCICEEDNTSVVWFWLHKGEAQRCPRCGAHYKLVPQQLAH
UniProt Q7KZN9: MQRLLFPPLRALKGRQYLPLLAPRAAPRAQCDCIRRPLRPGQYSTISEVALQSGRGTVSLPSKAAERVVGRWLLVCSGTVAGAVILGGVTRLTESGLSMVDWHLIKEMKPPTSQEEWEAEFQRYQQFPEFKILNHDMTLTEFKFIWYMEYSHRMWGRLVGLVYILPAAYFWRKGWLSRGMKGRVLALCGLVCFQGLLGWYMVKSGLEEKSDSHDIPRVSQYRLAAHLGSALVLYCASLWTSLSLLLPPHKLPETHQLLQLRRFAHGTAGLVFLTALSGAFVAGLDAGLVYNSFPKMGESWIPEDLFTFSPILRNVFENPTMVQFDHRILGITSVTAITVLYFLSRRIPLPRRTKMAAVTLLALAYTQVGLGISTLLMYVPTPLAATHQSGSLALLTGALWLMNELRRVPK
UniProt O14548: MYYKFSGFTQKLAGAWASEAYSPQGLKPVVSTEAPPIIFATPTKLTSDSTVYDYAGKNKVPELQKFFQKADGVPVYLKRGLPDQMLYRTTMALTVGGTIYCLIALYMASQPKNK
UniProt Q9Y6G5, whole entry, looked up: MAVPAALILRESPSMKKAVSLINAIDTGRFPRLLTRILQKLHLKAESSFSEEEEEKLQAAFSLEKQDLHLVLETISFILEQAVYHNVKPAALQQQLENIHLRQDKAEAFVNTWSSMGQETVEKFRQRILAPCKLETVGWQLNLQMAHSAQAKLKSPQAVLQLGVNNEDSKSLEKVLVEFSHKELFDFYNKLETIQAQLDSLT
UniProt Q9NQ92: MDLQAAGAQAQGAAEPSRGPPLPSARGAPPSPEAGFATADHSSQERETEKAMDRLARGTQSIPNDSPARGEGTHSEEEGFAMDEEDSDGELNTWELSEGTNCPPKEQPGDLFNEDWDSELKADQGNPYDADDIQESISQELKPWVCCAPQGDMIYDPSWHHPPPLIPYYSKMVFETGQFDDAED
UniProt P51911: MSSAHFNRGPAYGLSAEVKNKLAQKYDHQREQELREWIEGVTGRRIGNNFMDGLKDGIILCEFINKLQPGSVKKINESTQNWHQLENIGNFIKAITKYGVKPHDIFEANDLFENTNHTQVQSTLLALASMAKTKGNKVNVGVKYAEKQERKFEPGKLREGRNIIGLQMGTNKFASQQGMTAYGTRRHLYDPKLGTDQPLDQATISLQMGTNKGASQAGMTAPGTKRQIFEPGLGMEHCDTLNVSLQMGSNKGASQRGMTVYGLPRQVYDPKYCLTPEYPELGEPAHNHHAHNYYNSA
UniProt Q92905, whole entry, looked up: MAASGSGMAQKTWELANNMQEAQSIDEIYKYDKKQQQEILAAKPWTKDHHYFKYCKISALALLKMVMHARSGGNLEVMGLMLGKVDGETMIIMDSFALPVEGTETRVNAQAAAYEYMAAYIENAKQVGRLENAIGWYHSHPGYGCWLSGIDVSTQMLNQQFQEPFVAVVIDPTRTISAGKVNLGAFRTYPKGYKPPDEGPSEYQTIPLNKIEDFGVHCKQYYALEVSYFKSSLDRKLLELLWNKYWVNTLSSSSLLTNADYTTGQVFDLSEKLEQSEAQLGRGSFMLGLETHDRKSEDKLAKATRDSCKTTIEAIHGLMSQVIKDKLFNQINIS
UniProt Q8N129: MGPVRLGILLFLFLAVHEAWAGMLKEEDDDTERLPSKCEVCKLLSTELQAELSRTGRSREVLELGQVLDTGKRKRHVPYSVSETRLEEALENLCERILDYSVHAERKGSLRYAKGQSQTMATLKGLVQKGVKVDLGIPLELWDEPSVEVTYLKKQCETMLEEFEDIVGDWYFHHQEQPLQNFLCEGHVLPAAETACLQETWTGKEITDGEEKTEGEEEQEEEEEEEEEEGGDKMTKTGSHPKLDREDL
UniProt P15954, whole entry, looked up: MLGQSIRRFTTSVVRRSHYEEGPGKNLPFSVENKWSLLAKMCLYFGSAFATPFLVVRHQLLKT
UniProt Q99807: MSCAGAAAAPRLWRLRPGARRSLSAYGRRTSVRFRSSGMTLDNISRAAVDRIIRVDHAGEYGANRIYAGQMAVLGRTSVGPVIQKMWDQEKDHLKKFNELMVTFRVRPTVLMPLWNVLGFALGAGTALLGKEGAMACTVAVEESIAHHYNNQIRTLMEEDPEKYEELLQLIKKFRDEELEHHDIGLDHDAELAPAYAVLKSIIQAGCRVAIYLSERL
UniProt O95639, whole entry, looked up: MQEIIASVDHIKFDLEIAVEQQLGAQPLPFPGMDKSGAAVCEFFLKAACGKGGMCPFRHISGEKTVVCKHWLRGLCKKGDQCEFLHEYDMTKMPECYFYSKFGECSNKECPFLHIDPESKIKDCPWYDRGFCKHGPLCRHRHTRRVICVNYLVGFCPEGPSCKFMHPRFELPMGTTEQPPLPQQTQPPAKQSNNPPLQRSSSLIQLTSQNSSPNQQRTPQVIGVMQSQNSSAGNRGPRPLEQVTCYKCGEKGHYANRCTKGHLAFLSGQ
UniProt Q96KP4: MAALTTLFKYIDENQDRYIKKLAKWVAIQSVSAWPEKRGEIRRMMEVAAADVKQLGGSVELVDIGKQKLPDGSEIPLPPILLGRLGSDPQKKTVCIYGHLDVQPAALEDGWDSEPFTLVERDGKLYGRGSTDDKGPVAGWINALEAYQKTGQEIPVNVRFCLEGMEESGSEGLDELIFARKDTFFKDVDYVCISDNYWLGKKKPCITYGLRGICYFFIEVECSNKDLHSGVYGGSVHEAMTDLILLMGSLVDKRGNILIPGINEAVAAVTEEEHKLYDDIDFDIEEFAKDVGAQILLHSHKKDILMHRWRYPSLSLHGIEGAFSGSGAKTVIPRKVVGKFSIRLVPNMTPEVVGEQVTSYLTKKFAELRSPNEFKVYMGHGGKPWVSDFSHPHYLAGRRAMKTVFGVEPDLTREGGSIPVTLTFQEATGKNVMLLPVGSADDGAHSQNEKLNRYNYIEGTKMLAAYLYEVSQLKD
UniProt P39059: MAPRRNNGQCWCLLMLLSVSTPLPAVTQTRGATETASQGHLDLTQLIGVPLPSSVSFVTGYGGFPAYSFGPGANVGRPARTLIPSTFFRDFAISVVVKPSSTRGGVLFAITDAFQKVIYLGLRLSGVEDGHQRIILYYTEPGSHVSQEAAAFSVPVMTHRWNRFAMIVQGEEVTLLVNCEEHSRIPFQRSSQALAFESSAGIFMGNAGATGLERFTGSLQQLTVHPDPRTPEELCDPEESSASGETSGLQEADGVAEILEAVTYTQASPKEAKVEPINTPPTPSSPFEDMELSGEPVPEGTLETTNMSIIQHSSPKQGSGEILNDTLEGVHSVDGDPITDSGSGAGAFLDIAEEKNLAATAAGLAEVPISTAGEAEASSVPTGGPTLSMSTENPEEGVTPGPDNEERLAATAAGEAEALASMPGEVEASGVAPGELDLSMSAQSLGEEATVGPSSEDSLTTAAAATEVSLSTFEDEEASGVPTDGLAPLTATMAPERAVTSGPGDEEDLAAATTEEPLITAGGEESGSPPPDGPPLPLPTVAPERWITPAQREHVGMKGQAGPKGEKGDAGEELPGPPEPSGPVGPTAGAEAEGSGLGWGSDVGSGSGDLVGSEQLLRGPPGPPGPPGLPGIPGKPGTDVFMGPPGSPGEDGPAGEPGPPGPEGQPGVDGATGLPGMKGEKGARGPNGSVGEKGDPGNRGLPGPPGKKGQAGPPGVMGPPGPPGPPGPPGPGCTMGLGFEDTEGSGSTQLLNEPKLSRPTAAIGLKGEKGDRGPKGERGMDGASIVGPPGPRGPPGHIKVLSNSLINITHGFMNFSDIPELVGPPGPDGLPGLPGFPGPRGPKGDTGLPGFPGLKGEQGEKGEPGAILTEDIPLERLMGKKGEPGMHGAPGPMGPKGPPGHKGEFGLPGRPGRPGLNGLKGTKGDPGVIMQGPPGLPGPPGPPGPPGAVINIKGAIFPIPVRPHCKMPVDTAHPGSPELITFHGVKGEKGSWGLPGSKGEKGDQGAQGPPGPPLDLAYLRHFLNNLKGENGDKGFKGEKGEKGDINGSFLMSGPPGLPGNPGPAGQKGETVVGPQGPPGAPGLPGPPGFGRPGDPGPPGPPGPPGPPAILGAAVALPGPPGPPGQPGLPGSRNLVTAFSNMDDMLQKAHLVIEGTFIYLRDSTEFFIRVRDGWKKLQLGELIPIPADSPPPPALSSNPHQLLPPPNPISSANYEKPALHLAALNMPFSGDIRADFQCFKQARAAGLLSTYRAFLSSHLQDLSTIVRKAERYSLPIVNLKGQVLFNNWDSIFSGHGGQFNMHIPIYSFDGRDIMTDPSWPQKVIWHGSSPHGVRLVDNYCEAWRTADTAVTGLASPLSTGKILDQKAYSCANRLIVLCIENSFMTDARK
UniProt P31146: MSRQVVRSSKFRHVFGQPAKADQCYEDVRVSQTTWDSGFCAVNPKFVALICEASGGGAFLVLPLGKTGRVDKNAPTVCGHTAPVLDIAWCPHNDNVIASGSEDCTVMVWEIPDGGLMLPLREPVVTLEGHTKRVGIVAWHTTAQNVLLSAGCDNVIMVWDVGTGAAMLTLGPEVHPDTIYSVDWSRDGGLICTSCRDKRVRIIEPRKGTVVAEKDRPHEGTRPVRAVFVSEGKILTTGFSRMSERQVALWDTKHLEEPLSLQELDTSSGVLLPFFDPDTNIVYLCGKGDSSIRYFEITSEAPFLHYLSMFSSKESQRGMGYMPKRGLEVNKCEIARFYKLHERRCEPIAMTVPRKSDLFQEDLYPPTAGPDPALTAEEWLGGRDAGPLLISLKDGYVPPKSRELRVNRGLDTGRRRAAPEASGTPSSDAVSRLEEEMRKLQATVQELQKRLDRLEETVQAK
UniProt Q9BR76, whole entry, looked up: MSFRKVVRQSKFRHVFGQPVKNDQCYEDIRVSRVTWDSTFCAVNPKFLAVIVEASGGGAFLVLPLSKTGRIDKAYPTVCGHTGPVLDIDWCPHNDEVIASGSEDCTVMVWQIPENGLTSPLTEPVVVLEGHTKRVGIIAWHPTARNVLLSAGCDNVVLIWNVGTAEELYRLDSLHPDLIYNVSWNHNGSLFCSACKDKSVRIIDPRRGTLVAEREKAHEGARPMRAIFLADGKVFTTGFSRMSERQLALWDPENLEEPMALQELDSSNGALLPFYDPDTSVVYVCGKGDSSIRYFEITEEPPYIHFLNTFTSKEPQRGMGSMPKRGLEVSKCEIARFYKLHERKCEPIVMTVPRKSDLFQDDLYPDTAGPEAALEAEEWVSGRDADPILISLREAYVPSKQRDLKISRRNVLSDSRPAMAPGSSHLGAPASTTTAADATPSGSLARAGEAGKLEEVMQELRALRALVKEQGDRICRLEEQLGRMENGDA

Tests used:
Assay in all cases: log2 fold change, soluble protein after heating vs DMSO (PISA); higher = thermal stabilisation; K562 lysate, 10 uM; active = over 0.2 and 3.5 SD of the protein, either way, in both replicates (recomputed)
[1] = compound: CCCS(=O)(=O)Nc1ccc(F)c(C(=O)c2c[nH]c3ncc(-c4ccc(Cl)cc4)cc23)c1F [vemurafenib]
Outline: (§1)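 Following dounce homogenisation of K562 pellets in PBS pH 7.4 with 1 mM MgCl2, crude extract at 1 mg/mL protein was incubated for 30 min with 10 μM compound. Aliquots were then heated for 3 min over 48°C-58°C and pooled, NP-40 was added to 0.5% at 4°C, and soluble protein was recovered as the supernatant at 21,000xg for 90 min. Channel-sum-equalised TMTpro 16plex LC-MS/MS quantified this protein. Each value, from duplicates, is a log-two fold change in thermal stability relative to solvent controls.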

[2] = compound: CCCS(=O)(=O)Nc1ccc(F)c(C(=O)c2c[nH]c3ncc(Cl)cc23)c1F
Outline: as §1

[3] = compound: CCN(CCCOc1ccc2c(Nc3cc(CC(=O)Nc4cccc(F)c4)[nH]n3)ncnc2c1)CCOP(=O)(O)O [barasertib]
Outline: as §1

[4] = compound: CC[C@@H]1C(=O)N(C)c2cnc(Nc3ccc(C(=O)NC4CCN(C)CC4)cc3OC)nc2N1C1CCCC1
Outline: as §1

[5] = compound: CC[C@@H]1C(=O)N(C)c2cnc(Nc3ccc(C(=O)N[C@H]4CC[C@H](N5CCN(CC6CC6)CC5)CC4)cc3OC)nc2N1C(C)C [volasertib]
Outline: as §1

[6] = compound: CCn1c(C(=O)N(C2CC2)C2CC2)cc2c3c(ncn3C)c(Nc3cc(C)n(C)n3)nc21
Outline: as §1

[7] = compound: CCn1cc(-c2ccnc3[nH]c(-c4cccc(CN(C)C)c4)cc23)c(-c2ccc(NC(=O)N(C)C)cc2)n1
Outline: as §1

[8] = compound: CN1CCC(CNc2ccc3ncc(-c4cccc(OC(F)(F)F)c4)n3n2)CC1
Outline: as §1

[9] = compound: CN1CCN(CCOc2cc(OC3CCOCC3)c3c(Nc4c(Cl)ccc5c4OCO5)ncnc3c2)CC1 [saracatinib]
Outline: as §1

[10] = compound: CN1CCN(c2nc(C3=C(c4c[nH]c5ccccc45)C(=O)NC3=O)c3ccccc3n2)CC1 [sotrastaurin]
Outline: as §1

Measured: log2 fold change

CPSF2 (UniProt Q9P2I0)
inactive: [1] -0.009 | [2] 0.003 | [3] 0.018 | [4] -0.018 | [5] -0.042 | [6] 0.04 | [7] -0.017 | [8] -0.031 | [9] -0.018 | [10] 0.028

CPNE1 (UniProt Q99829)
inactive: [1] -0.004 | [2] 0.016 | [3] -0.028 | [4] 0.013 | [5] -0.027 | [6] -0.012 | [7] -0.064 | [8] 0.044 | [9] -0.004 | [10] 0.019

CPD (UniProt O75976)
inactive: [1] 0.006 | [2] -0.004 | [3] 0.001 | [4] 0.173 | [5] 0.012 | [6] -0.084 | [7] -0.12 | [8] 0.048 | [9] 0.018 | [10] -0.003

COQ6 (UniProt Q9Y2Z9)
inactive: [1] -0.011 | [2] 0.011 | [3] -0.034 | [4] 0.019 | [5] -0.01 | [6] -0.006 | [7] 0.014 | [8] 0.012 | [9] 0.006 | [10] -0.002

COX4I1 (UniProt P13073)
inactive: [1] 0.026 | [2] -0.012 | [3] -0.012 | [4] 0.05 | [5] 0.041 | [6] -0.012 | [7] -0.054 | [8] 0.044 | [9] 0.03 | [10] -0.002

COX5B (UniProt P10606)
inactive: [1] -0.023 | [2] -0.053 | [3] 0.133 | [4] 0.058 | [5] 0.091 | [6] -0.023 | [7] 0.025 | [8] -0.096 | [9] 0.029 | [10] -0.032

COX15 (UniProt Q7KZN9)
inactive: [1] 0.015 | [2] 0.012 | [3] 0.007 | [4] 0.025 | [5] 0.073 | [6] -0.064 | [7] -0.139 | [8] 0.074 | [9] -0.007 | [10] 0.008

COX7A2L (UniProt O14548)
inactive: [1] -0.056 | [2] 0.028 | [3] 0.03 | [4] -0.043 | [5] 0.039 | [6] 0.005 | [7] -0.128 | [8] 0.045 | [9] -0.036 | [10] -0.011

COMMD10 (UniProt Q9Y6G5)
inactive: [1] -0.012 | [2] -0.001 | [3] 0.104 | [4] 0.039 | [5] -0.016 | [6] 0.02 | [7] 0.062 | [8] 0.001 | [9] 0.022 | [10] -0.005

COL6A5 (UniProt A8TX70)
active: [7] -0.834
inactive: [1] 0.073 | [2] 0.041 | [3] 0.09 | [4] 0.078 | [5] -0.044 | [6] -0.055 | [8] 0.374 | [9] -0.048 | [10] -0.03

COPS7B (UniProt Q9H9Q2)
inactive: [1] 0.013 | [2] -0.01 | [3] -0.044 | [4] 0.272 | [5] 0.01 | [6] -0.002 | [7] 0.188 | [8] -0.041 | [9] -0.03 | [10] 0.07

COPRS (UniProt Q9NQ92)
inactive: [1] -0.005 | [2] -0.007 | [3] 0.1 | [4] 0.037 | [5] 0.048 | [6] -0.149 | [7] -0.333 | [8] 0.167 | [9] 0.026 | [10] 0.018

Reprinted at random: two entries already listed
COPRS (UniProt Q9NQ92)
inactive: [1] -0.005 | [2] -0.007 | [3] 0.1 | [4] 0.037 | [5] 0.048 | [6] -0.149 | [7] -0.333 | [8] 0.167 | [9] 0.026 | [10] 0.018

CPNE1 (UniProt Q99829)
inactive: [1] -0.004 | [2] 0.016 | [3] -0.028 | [4] 0.013 | [5] -0.027 | [6] -0.012 | [7] -0.064 | [8] 0.044 | [9] -0.004 | [10] 0.019

The list continues.

CNN1 (UniProt P51911)
inactive: [1] -0.007 | [2] -0.082 | [3] -0.004 | [4] 0.175 | [5] -0.085 | [6] -0.101 | [7] 0.034 | [8] 0.025 | [9] 0.009 | [10] -0.003

COG3 (UniProt Q96JB2)
inactive: [1] 0.004 | [2] 0.012 | [3] 0.041 | [4] -0.056 | [5] -0.071 | [6] 0.042 | [7] -0.038 | [8] 0.012 | [9] 0.046 | [10] 0.008

COPS5 (UniProt Q92905)
inactive: [1] -0.014 | [2] -0.009 | [3] 0.004 | [4] 0.034 | [5] 0.01 | [6] -0.009 | [7] -0.075 | [8] 0.013 | [9] -0.001 | [10] -0.011

COX6A1 (UniProt P12074)
inactive: [1] 0.024 | [2] -0.018 | [3] 0.102 | [4] 0.071 | [5] -0.003 | [6] 0.039 | [7] -0.377 | [8] 0.033 | [9] -0.036 | [10] 0.175

CNPY4 (UniProt Q8N129)
inactive: [1] 0.018 | [2] -0.023 | [3] -0.011 | [4] 0.109 | [5] 0.023 | [6] -0.059 | [7] -0.081 | [8] 0.017 | [9] 0.071 | [10] 0.054

COX7C (UniProt P15954)
inactive: [1] 0.02 | [2] -0.006 | [3] -0.035 | [4] 0.206 | [5] -0.017 | [6] -0.05 | [7] -0.03 | [8] -0.106 | [9] 0.009 | [10] -0.052

COQ7 (UniProt Q99807)
inactive: [1] 0.03 | [2] -0.012 | [3] 0.056 | [4] 0.021 | [5] -0.016 | [6] -0.01 | [7] 0.023 | [8] 0.026 | [9] 0.011 | [10] -0.006

CPSF4 (UniProt O95639)
inactive: [1] -0.02 | [2] -0.017 | [3] 0.064 | [4] 0.014 | [5] 0.019 | [6] -0.001 | [7] -0.059 | [8] 0 | [9] 0.03 | [10] -0.006

CNDP2 (UniProt Q96KP4)
active: [7] -0.343 | [8] 0.278
inactive: [1] 0.01 | [2] 0.023 | [3] -0.01 | [4] 0.11 | [5] 0.041 | [6] -0.032 | [9] 0.01 | [10] 0.013

COL15A1 (UniProt P39059)
inactive: [1] -0.074 | [2] 0.08 | [3] -0.022 | [4] 0.106 | [5] -0.003 | [6] -0.023 | [7] -0.031 | [8] 0.078 | [9] -0.034 | [10] -0.029

CPT2 (UniProt P23786)
inactive: [1] 0.12 | [2] 0.014 | [3] 0.027 | [4] -0.024 | [5] 0.207 | [6] 0 | [7] 0.12 | [8] -0.037 | [9] -0.082 | [10] 0.024

COMMD3 (UniProt Q9UBI1)
inactive: [1] 0.064 | [2] 0.005 | [3] 0.105 | [4] -0.017 | [5] -0.031 | [6] 0.007 | [7] -0.062 | [8] -0.129 | [9] 0.005 | [10] -0.02

CORO1A (UniProt P31146)
inactive: [1] -0.021 | [2] -0.001 | [3] 0.013 | [4] 0.025 | [5] -0.035 | [6] 0.11 | [7] -0.113 | [8] 0.021 | [9] -0.169 | [10] -0.007

CNPY2 (UniProt Q9Y2B0)
inactive: [1] -0.014 | [2] -0.001 | [3] 0.02 | [4] -0.035 | [5] 0.004 | [6] 0.037 | [7] 0.181 | [8] 0.021 | [9] 0.006 | [10] 0.04

COQ3 (UniProt Q9NZJ6)
inactive: [1] 0.016 | [2] 0.006 | [3] -0.029 | [4] 0.005 | [5] -0.023 | [6] -0.036 | [7] -0.064 | [8] 0.031

CNN2 (UniProt Q99439)
inactive: [1] 0.003 | [2] 0.012 | [3] -0.016 | [4] 0.041 | [5] 0.024 | [6] -0.023 | [7] -0.034 | [8] 0.016 | [9] -0.039 | [10] -0.022

CORO1B (UniProt Q9BR76)
inactive: [1] 0.002 | [2] 0.016 | [3] 0.009 | [4] -0.016 | [5] -0.009 | [6] -0.009 | [7] -0.054 | [8] 0.032 | [9] 0.009 | [10] 0.003

CPNE7 (UniProt Q9UBL6)
inactive: [1] 0.035 | [2] 0 | [3] 0.017 | [4] -0.018 | [5] -0.016 | [6] 0.071 | [7] -0.201 | [8] 0.134 | [9] 0.045 | [10] -0.019
